Reference: patent publication US20030018025A1, “Certain 4-aminomethyl-2-substituted imidazole derivatives and 2-aminomethyl-4-substituted imidazole derivatives: new classes of dopamine receptor subtype specific ligands” (Neurogen Corporation, Corporation of the State of Delaware, priority 1995, published 2003)
“Also recorded” adds a separate entry of the source. For at least one compound, name, drawing or mass did not settle the structure.

Key:
[1] = system: male Sprague Dawley rats; assay: Step-down passive avoidance task; format: in vivo, rat
Procedure: Method Non-naive male Sprague Dawley rats (SASCO St Louis) weighing between […], were housed in groups of three in a temperature and humidity controlled vivarium having a 12 hour light/dark cycle. Animals had ad lib access to food and water.
Clozapine was dissolved in 50% PEG and administered in a dose range of from 0.25 to 2 mg/kg. Both drugs were administered intravenously 5 minutes prior to training in both learning tasks
A step-down passive avoidance platform 4 (cm)×7(cm) was placed in the center of an electrified gris floor, which was contained within a large (45×45×50 cm) white translucent plexiglas enclosure having a closable lid. The bars of the grip were spaced 1.5 cm apart and were wired to a BRS-LVE shock generator/scrambler which was set to deliver a 2 mA 6 second shock. Four passive avoidance boxes were automated by customer software (Labview) and commercial interface modules (National Instruments) connected to a computer The timing and delivery of the shock as well as the latency to steo down and the number of trials taken to reach criterion during training was under the control of the computer. All testing was done in the presence of 62 db white noise.
After pretreatment with clozapine, Compound 23 or control (vehicle), the animal was placed on the platform which automatically started a timer. When the animal stepped off the platform it automatically received the footshock. Following each shock the animal was removed from the box and placed in its cage for a one minute intertrial interval and then returned to the platform. Training was terminted when the animal remained on the platform for 120 Seconds. Immediately after training the animal was returned to its home cage in a vivarium.
Testing was conduced approximately 24 hours after training, Drug-free animals were placed on the platform in the box in which they were trained and the latency to step down onto the unshocked floor was recorded for one trial. The animal was allowed to a maximum of 120 seconds to step down.

[2] = system: male Sprague Dawley rats; assay: Modified Morris water maze; format: in vivo, rat; details: 0.25 to 2 mg/kg i.v., six trial procedure

## CN1CCN(C2=Nc3cc(Cl)ccc3Nc3ccccc32)CC1 [clozapine]
[1]; 1.0 mg/kg i.v. 5 minutes prior to training, 1 mg/kg
  passive avoidance acquisition vs vehicle: significant deficit in acquisition
[1]; 2.0 mg/kg i.v. 5 minutes prior to training, 2 mg/kg
  passive avoidance acquisition vs vehicle: significant deficit in acquisition
[1]; 0.25 to 2 mg/kg i.v., retest about 24 hours later
  passive avoidance retention vs vehicle: no significant deficits in retention; also recorded: no significant differences in retention
[2]
  water maze retention (trial 1 vs retest latency): no significant differences
[2]; listed as Clozapine
  water maze retention (trial 1 vs retest latency): no deficits in the water maze task
